Assay results as given in PMC4559561, “Radioiodinated PARP1 tracers for glioblastoma imaging” (EJNMMI Research, 2015).

System: orthotopic U251 MG tumors
Experiment: Ex vivo autoradiography of orthotopic tumor sections
Assay type: in vivo, mouse
[1] = no Olaparib, 500 μCi, 2 h circulation

For `O=C(c1ccc([131I])cc1)N1CCN(C(=O)c2cc(Cc3n[nH]c(=O)c4ccccc34)ccc2F)CC1` [[^131I]-I2-PARPi], the “autoradiography signal intensity, tumor tissue vs healthy brain tissue” value [1] was 15.7 fold, the “autoradiography signal intensity, tumor tissue vs muscle tissue” value [1] was 6.2 fold and the “autoradiography signal intensity, muscle” value (with Olaparib treatment) was 248 ± 72 AU. The “autoradiography signal intensity, tumor tissue” value (with Olaparib treatment) was 536 ± 87 AU, the “autoradiography signal intensity, muscle” value (without Olaparib treatment) was 192 ± 20 AU and the “autoradiography signal intensity, tumor tissue” value (without Olaparib treatment) was 1222 ± 203 AU.
